Article PMC7819943, “Rice protein-binding microarrays: a tool to detect cis-acting elements near promoter regions in rice”
Some of the results follow.

Chains of the proteins cited; added tags and fusions are not shown.
UniProt Q0JBA9, entry or part of it: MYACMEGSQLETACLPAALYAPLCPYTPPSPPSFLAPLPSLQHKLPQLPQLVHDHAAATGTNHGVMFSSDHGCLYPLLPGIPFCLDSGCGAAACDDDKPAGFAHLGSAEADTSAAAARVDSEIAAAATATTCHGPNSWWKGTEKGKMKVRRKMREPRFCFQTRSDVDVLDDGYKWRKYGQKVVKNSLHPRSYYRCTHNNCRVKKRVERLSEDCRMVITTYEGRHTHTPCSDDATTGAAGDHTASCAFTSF

What follows are sequences tested against OsWRKY34 (Oryza sativa, UniProt Q0JBA9 1-250) (assay: protein-binding microarray (RPBM); PBS, 2% BSA, 51.3 ng/ul salmon testes DNA, 50 uM zinc acetate, 200 nM TF, 25 C, 1 h; high values mean tight binding). Settings: protein: recombinant; tags: N-terminal polyhistidine and DsRed monomer fusion (pET32a); label: CyDye5-dUTP incorporated in the synthesized complementary strand; 3' TTTTT single-stranded linker to array surface; dsDNA, one strand shown.
Method in brief: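 Transcription factors, each fused N-terminally to a polyhistidine tag and DsRed, were expressed in E. coli BL21-CodonPlus and purified on Ni–NTA. A custom Agilent array was made double-stranded by primer extension with Cy5-dUTP and blocked with 2% BSA. It was incubated with 200 nM protein in PBS, 2% BSA, salmon testes DNA and 50 µM zinc acetate at 25 °C for 1 h, then washed. The binding signal is per-feature fluorescence intensity (arbitrary units) read on an Axon 4000B scanner.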

Sequence	binding signal
CTACTTGGCTACCCCGGCTATCACTTTGCATACAATCATACGGAGTCACCTAGTGCAG	9080 fluorescence intensity (a.u.)
AGCCACACCACGTCTCCTGCCGGCCTCTAGACGTATTACACGGAGTCACCTAGTGCAG	8120 fluorescence intensity (a.u.)
TCTCGCAACGCCCCTATTTTACTTTCTTTTTCATAATTTCCGGAGTCACCTAGTGCAG	9380 fluorescence intensity (a.u.)
GCTGCTCGGTGGTTGGGTTTGGACCGAGCGGGTGAAAGGGCGGAGTCACCTAGTGCAG	8530 fluorescence intensity (a.u.)
ATAGCTAAACTGTGCAATTGGTTTTTCTTTTTGTCCACATCGGAGTCACCTAGTGCAG	9700 fluorescence intensity (a.u.)
TCTTTCCTTATCTTGACCTGTCGTCAGCAAATGTGTCATTCGGAGTCACCTAGTGCAG	8270 fluorescence intensity (a.u.)
TCCATCTCTTTTATCTCAGTCTCGCGTATATCCTAGCACCCGGAGTCACCTAGTGCAG	11800 fluorescence intensity (a.u.)
GGGATAATTGCTTTCTGCTGTTTTCTTTTTACTTTTTTTTCGGAGTCACCTAGTGCAG	9810 fluorescence intensity (a.u.)
CTGGATTGACTTTTTATTCAACGGTTGGAGCAGCTTGTTTCGGAGTCACCTAGTGCAG	10900 fluorescence intensity (a.u.)
TATATACACTTCTCTTAGCACACATTTCAAACGGTTAAATCGGAGTCACCTAGTGCAG	8080 fluorescence intensity (a.u.)
TCTCTCCAACTTTGGCCACATACACCACAAACAAAATACACGGAGTCACCTAGTGCAG	8140 fluorescence intensity (a.u.)
CCCCATGTTAGGTCGCTCCTCAACTGCACTATCCATCAGCCGGAGTCACCTAGTGCAG	8930 fluorescence intensity (a.u.)
TTGCTCTCCGCCCACAGCACCGACTCATCCTGTTACTCCGCGGAGTCACCTAGTGCAG	8680 fluorescence intensity (a.u.)
GTTCCTCTGATTGGGGAGGCTGGGGCACTGAAAAGGCGAACGGAGTCACCTAGTGCAG	13000 fluorescence intensity (a.u.)
GGAGGAGGAGGAGGCCAAGGGCGTGGGTACTATGATGATGCGGAGTCACCTAGTGCAG	10200 fluorescence intensity (a.u.)
TGTTCTTTCAGCGGTAGGCGATGTATCTCTTGTATAGCCGCGGAGTCACCTAGTGCAG	8570 fluorescence intensity (a.u.)
TGTATTAGGGAGTGTGAATGTAGTATTTCATTTCCGTCTACGGAGTCACCTAGTGCAG	8080 fluorescence intensity (a.u.)
GACATGTGTGTCCCACTTTTTAAAATCTTTTTTCCTGATTCGGAGTCACCTAGTGCAG	8580 fluorescence intensity (a.u.)
CACCTATCATACACACGTTACGTCTTAGAGTCCATGCTGCCGGAGTCACCTAGTGCAG	10800 fluorescence intensity (a.u.)
ATTTTTCTTCAAACTTTCAACTTTTTCATCGTATCCAAACCGGAGTCACCTAGTGCAG	8740 fluorescence intensity (a.u.)
TCACTGGTAACCAGCCTTTTTACGCCCTTTACCTCGTCGACGGAGTCACCTAGTGCAG	8110 fluorescence intensity (a.u.)
GGTGCGGCGGTGGGCGGCATGGAGATGGGGAGAGGAGGCGCGGAGTCACCTAGTGCAG	10600 fluorescence intensity (a.u.)
TGTGTCATCTTTACTACCGTTCCTCTCTCTATCCTCTCTCCGGAGTCACCTAGTGCAG	8970 fluorescence intensity (a.u.)
CTTAGTGGTGGGTATAATATCTCGTCAGCTTCGCGCAAGCCGGAGTCACCTAGTGCAG	11300 fluorescence intensity (a.u.)
GCGGCGGTGGTTAGGGTTTGGGGCTCGTCGGCGTCGGCGACGGAGTCACCTAGTGCAG	10900 fluorescence intensity (a.u.)
TCTCTCGCGCGCGCACCTTGCCGCCGCCCGCCATCGCCAACGGAGTCACCTAGTGCAG	13900 fluorescence intensity (a.u.)
GAACCCTTCGGCAATAAATACGGCGTCCCATCAAAATCGACGGAGTCACCTAGTGCAG	8050 fluorescence intensity (a.u.)

Sequence	binding signal
TTTCTATATGGACTCTGTTTTTTCTTTTTCTCCGATTAATCGGAGTCACCTAGTGCAG	8350 fluorescence intensity (a.u.)
TCACTGACGTCCGGCCCCACGCGGCTGTCCCCACCGCCCCCGGAGTCACCTAGTGCAG	10500 fluorescence intensity (a.u.)
ACCGCTACGCCAACCACAACCGCGTCTTCTTCGACTGCACCGGAGTCACCTAGTGCAG	9710 fluorescence intensity (a.u.)
GTACCTGCTCTAATTTGTTTTGTTATTAGTCTACGTTTAACGGAGTCACCTAGTGCAG	8580 fluorescence intensity (a.u.)
ATCGGGGCGTCACTCATCACCATCCGCGAGCACTTTGACTCGGAGTCACCTAGTGCAG	8420 fluorescence intensity (a.u.)
CCTCTAAATTTTAAGATTTTTTTAATCATTTTACCATTTTCGGAGTCACCTAGTGCAG	65200 fluorescence intensity (a.u.)
AAGTGGATGGTGGTGGTGGTGGGGCATCGGAGACATACAGCGGAGTCACCTAGTGCAG	9280 fluorescence intensity (a.u.)
CACACACACACTCACACTCACACACGCTCTCAACTCACTCCGGAGTCACCTAGTGCAG	12400 fluorescence intensity (a.u.)
ATCCGATCTCTCTTCTCATTCTCTTCTCTTGGTTTGGGGTCGGAGTCACCTAGTGCAG	8220 fluorescence intensity (a.u.)
TTGGGTTGGTTGCTCTCCTCCTCTCTTCTCTTTGTGGTCGCGGAGTCACCTAGTGCAG	8580 fluorescence intensity (a.u.)
GAGCTCCACCCACCGCAACTACCTTTTTGACCCCTCACTCCGGAGTCACCTAGTGCAG	8670 fluorescence intensity (a.u.)
CTTTCTTTTTTTTCCCCTTTTCTTTTCTGACAGCCACTGTCGGAGTCACCTAGTGCAG	9950 fluorescence intensity (a.u.)
GTTGCATGTGGATTTTGCTGAACTTTGGTCTTCTCAACTTCGGAGTCACCTAGTGCAG	13700 fluorescence intensity (a.u.)
CGTCTATCCCTTTTTTTTTATACAATTAGGTGAAAATATGCGGAGTCACCTAGTGCAG	9030 fluorescence intensity (a.u.)
TTTGTTTCCTCACGTGGTTTCCTTTTTGGCACCGCATTACCGGAGTCACCTAGTGCAG	12600 fluorescence intensity (a.u.)
CTGTGTGAGACTGACATGTGGGGCCCACGGGGTTTATTATCGGAGTCACCTAGTGCAG	8320 fluorescence intensity (a.u.)
GACCGTTCCAGTTAGTTTAACACCTTAACTTCCATTAGCTCGGAGTCACCTAGTGCAG	9400 fluorescence intensity (a.u.)
CATTCAATCCTAGCCATTCATCCACTTTCTTTTTTTTTTTCGGAGTCACCTAGTGCAG	8210 fluorescence intensity (a.u.)
GCCCCAATTGACCACGTTCGCTGTAGCCGCGCCCCGCGCACGGAGTCACCTAGTGCAG	11200 fluorescence intensity (a.u.)
GCGCCGCCATCACCACCGCCGCGGCCACCGTCACCCCGGCCGGAGTCACCTAGTGCAG	8240 fluorescence intensity (a.u.)
TCGGATACGAGTTTGATTCTCATCCTCCTTCATTTATATTCGGAGTCACCTAGTGCAG	8320 fluorescence intensity (a.u.)
AATCTCAGTTCTCATGCCTTGTTTAGTTCCAAACTTTTTCCGGAGTCACCTAGTGCAG	10200 fluorescence intensity (a.u.)
GTTGTCAGTGCGTGGGTGGTGTTTTCTTCATTTTCCTATTCGGAGTCACCTAGTGCAG	11600 fluorescence intensity (a.u.)
TTTACACACTCATCATACATACTATTTGCTCCATTCTGAACGGAGTCACCTAGTGCAG	9210 fluorescence intensity (a.u.)
TTTTGTGGTTGGTTGTATCGTGATCCTAAGTGTGAAAAAACGGAGTCACCTAGTGCAG	8380 fluorescence intensity (a.u.)
CTCAAGATTTATGATTTTCTATATGTTTGTCCCTTTTCTTCGGAGTCACCTAGTGCAG	10300 fluorescence intensity (a.u.)
CTCTCTCTCTCTCATGCAATGCAAATGCAACCTGTCTTATCGGAGTCACCTAGTGCAG	8840 fluorescence intensity (a.u.)

Another view of some results above:
Sequence,binding signal
ATTTTTCTTCAAACTTTCAACTTTTTCATCGTATCCAAACCGGAGTCACCTAGTGCAG,8740 fluorescence intensity (a.u.)
TCACTGGTAACCAGCCTTTTTACGCCCTTTACCTCGTCGACGGAGTCACCTAGTGCAG,8110 fluorescence intensity (a.u.)
GGTGCGGCGGTGGGCGGCATGGAGATGGGGAGAGGAGGCGCGGAGTCACCTAGTGCAG,10600 fluorescence intensity (a.u.)
TGTGTCATCTTTACTACCGTTCCTCTCTCTATCCTCTCTCCGGAGTCACCTAGTGCAG,8970 fluorescence intensity (a.u.)
CTTAGTGGTGGGTATAATATCTCGTCAGCTTCGCGCAAGCCGGAGTCACCTAGTGCAG,11300 fluorescence intensity (a.u.)
GCGGCGGTGGTTAGGGTTTGGGGCTCGTCGGCGTCGGCGACGGAGTCACCTAGTGCAG,10900 fluorescence intensity (a.u.)
TCTCTCGCGCGCGCACCTTGCCGCCGCCCGCCATCGCCAACGGAGTCACCTAGTGCAG,13900 fluorescence intensity (a.u.)
GAACCCTTCGGCAATAAATACGGCGTCCCATCAAAATCGACGGAGTCACCTAGTGCAG,8050 fluorescence intensity (a.u.)
TTTCTATATGGACTCTGTTTTTTCTTTTTCTCCGATTAATCGGAGTCACCTAGTGCAG,8350 fluorescence intensity (a.u.)
TCACTGACGTCCGGCCCCACGCGGCTGTCCCCACCGCCCCCGGAGTCACCTAGTGCAG,10500 fluorescence intensity (a.u.)
